Reference: PubChem BioAssay AID1259308 (NCATS, 2017)

Assay: 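Knock-downs that increase output of a recombinant reporter protein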 (primary screen)
Cell system: human HEK293 embryonic kidney cells stably expressing firefly luciferase (HEK-CMV-Luc2-Hygro)
Reagent: single siRNA against human genes, 0.8 pmol siRNA per well
Timing: 72 h
Measurement: 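Luciferase light (ONE-Glo) measured on one replicate plate set and viability (CellTiter-Glo) on the other, scaled to a negative control siRNA, with robust z-scores and luciferase per cell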
Direction: total luciferase, z-score and total luciferase, % of control: higher = more reporter protein produced; luciferase per cell, z-score: higher = more reporter output per viable cell
Active means: 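Active when the median/MAD z-score for overall luciferase is greater than 3; a gene was taken forward for validation with new siRNAs if at least two of its three siRNAs passed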
Calls: active = raised luciferase; inactive = no rise
The deposit covers about 59,000 reagents; shown is a random part of them. About 1,510 of them (2.6%) count as active. 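Calls use total luciferase alone and ignore viability, so some active siRNAs may act by altering cell number.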 Reagents against one gene are numbered here. Further read-outs or replicates are left out here.

| Target gene | reagent no. | total luciferase, z-score | total luciferase, % of control | luciferase per cell, z-score | call |
| --- | --- | --- | --- | --- | --- |
| EMC9 | 1 | 1.17 | 105 | 0.837 | inactive |
| EMC9 | 2 | -0.585 | 70.3 | -0.33 | inactive |
| EMC9 | 3 | 0.609 | 94 | 0.214 | inactive |
| RPS26P31 | 1 | -2.64 | 29.4 | -2.04 | inactive |
| RPS26P31 | 2 | -2.76 | 27.1 | -3.37 | inactive |
| RPS26P31 | 3 | 0.706 | 95.9 | 0.239 | inactive |
| PABPC1 | 1 | 2.61 | 134 | 1.57 | inactive |
| PABPC1 | 2 | 2.74 | 136 | 2.65 | inactive |
| PABPC1 | 3 | -0.31 | 75.7 | 0.218 | inactive |
| SRR | 1 | 0.811 | 98 | 0.828 | inactive |
| SRR | 2 | -0.76 | 66.8 | -0.735 | inactive |
| SRR | 3 | 2.68 | 135 | 1.33 | inactive |
| DIS3L2 | 1 | -3 | 22.2 | -3.84 | inactive |
| DIS3L2 | 2 | 0.248 | 86.8 | -0.351 | inactive |
| DIS3L2 | 3 | -0.918 | 63.6 | -1.13 | inactive |
| CYB5R5 | 1 | 2.95 | 141 | 1.87 | inactive |
| CYB5R5 | 2 | 0.558 | 93 | 0.627 | inactive |
| CYB5R5 | 3 | -1.36 | 54.9 | -2.08 | inactive |
| CCDC93 | 1 | -0.0676 | 80.5 | 0.161 | inactive |
| CCDC93 | 2 | 0.514 | 92.1 | 0.62 | inactive |
| CCDC93 | 3 | 0.59 | 93.6 | 0.199 | inactive |
| RPL32P16 | 1 | 0.51 | 92 | 0.094 | inactive |
| RPL32P16 | 2 | -0.463 | 72.7 | -0.0287 | inactive |
| RPL32P16 | 3 | -0.34 | 75.1 | -0.501 | inactive |
| TNFRSF17 | 1 | 1.4 | 110 | 0.0851 | inactive |
| TNFRSF17 | 2 | -0.171 | 78.5 | 0.797 | inactive |
| TNFRSF17 | 3 | 0.021 | 82.3 | 0.349 | inactive |
| CSN3 | 1 | 0.51 | 92 | 0.362 | inactive |
| CSN3 | 2 | -0.692 | 68.1 | -0.743 | inactive |
| CSN3 | 3 | 2.49 | 131 | 1.91 | inactive |
| CD163L1 | 1 | -0.448 | 73 | -0.45 | inactive |
| CD163L1 | 2 | -0.164 | 78.6 | 0.874 | inactive |
| CD163L1 | 3 | -1.24 | 57.2 | -1.37 | inactive |
| ZKSCAN4 | 1 | -0.09 | 80.1 | 0.514 | inactive |
| ZKSCAN4 | 2 | -0.404 | 73.8 | -0.163 | inactive |
| ZKSCAN4 | 3 | 0.0647 | 83.2 | -0.204 | inactive |
| ARSL | 1 | 0.697 | 95.8 | 0.172 | inactive |
| ARSL | 2 | -0.477 | 72.4 | -0.0936 | inactive |
| ARSL | 3 | -0.741 | 67.2 | -1.22 | inactive |

Reformatted: results already given
Target gene | reagent no. | total luciferase, z-score | total luciferase, % of control | luciferase per cell, z-score | call
CYB5R5 | 1 | 2.95 | 141 | 1.87 | inactive
CYB5R5 | 2 | 0.558 | 93 | 0.627 | inactive
CYB5R5 | 3 | -1.36 | 54.9 | -2.08 | inactive
CCDC93 | 1 | -0.0676 | 80.5 | 0.161 | inactive
CCDC93 | 2 | 0.514 | 92.1 | 0.62 | inactive
CCDC93 | 3 | 0.59 | 93.6 | 0.199 | inactive
RPL32P16 | 1 | 0.51 | 92 | 0.094 | inactive
